Primary screen of a compound library

Chains of the proteins cited; added tags and fusions are not shown.
UniProt E9BF75, entry or part of it: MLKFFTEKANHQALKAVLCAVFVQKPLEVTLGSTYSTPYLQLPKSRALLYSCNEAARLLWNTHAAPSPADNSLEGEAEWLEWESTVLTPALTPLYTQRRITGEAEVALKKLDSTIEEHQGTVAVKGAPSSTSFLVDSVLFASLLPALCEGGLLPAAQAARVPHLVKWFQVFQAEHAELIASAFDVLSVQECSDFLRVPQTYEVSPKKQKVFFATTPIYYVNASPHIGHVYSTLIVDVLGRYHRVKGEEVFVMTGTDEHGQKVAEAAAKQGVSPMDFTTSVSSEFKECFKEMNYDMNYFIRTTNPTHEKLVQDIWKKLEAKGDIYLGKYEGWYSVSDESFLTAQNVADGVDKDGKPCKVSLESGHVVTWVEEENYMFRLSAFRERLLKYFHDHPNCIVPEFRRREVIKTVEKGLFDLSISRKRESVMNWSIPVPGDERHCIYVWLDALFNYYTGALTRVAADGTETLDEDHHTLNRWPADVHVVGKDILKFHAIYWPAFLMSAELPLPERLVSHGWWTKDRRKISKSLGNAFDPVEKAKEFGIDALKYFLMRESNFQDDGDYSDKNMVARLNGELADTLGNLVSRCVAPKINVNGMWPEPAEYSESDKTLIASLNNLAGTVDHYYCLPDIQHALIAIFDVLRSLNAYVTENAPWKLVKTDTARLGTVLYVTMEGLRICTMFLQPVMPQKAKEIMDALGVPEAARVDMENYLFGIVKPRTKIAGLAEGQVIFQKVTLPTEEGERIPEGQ

Source: ChEMBL document CHEMBL3988442, “University of Dundee, Small-Polar-MMV Screening Library” (2021).

Mtb heat-shock: 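Assay on Mycobacterium tuberculosis, filed only as a heat shock assay from Cornell; the read-out is not stated. The concentration is filed as 10 mM, unlikely as a test dose, so the dose is not known. The record gives no direction; compounds that gave an IC50 in retests scored well above the rest, so higher reads as stronger inhibition. Size under these conditions: about 69,000 compounds, about 930 of them at 50% or above in at least one test.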
Mtb growth Cornell: 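Whole-cell assay for inhibitors of Mycobacterium tuberculosis growth, labelled Cornell in the record; the read-out is not stated. The concentration is filed as 10 mM, unlikely as a test dose, so the dose is not known. The record gives no direction; compounds strong in two other growth screens of this library score well above the rest, so higher reads as stronger inhibition. Size under these conditions: about 53,000 compounds, about 900 of them at 50% or above in at least one test.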
LdMetRS: 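Methionyl-tRNA synthetase (putative), Leishmania donovani (UniProt E9BF75). Primary screen of methionyl-tRNA synthetase; the read-out is not stated. The test concentration is not given. The values are filed as inhibition. About 68,000 compounds were tested under these conditions; 0.035% (about 24) showed 50% or more at least once.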

Results are percentages, as filed. The record does not define 0% and 100%; most values in the screen are far below 50% and negative numbers occur (in some assays of this library far below -100). Compounds were drawn at random from those tested, without regard to their results. A dash means the value is not listed here; it may have been measured.

compound,Mtb heat-shock,Mtb growth Cornell,LdMetRS
C[C@@H]1CN(C(=O)c2c[nH]c(=O)c(Cl)c2)CC[C@@]1(O)C1CCOCC1,2.322%,-15.26%,16.72%
CN(C)C(=O)C1(CCCc2ccncc2)CCCN1 (centres undefined),-2.085%,-17.71%,9.247%
COc1ccc(NC(=O)N2CCN(c3ncccn3)CC2)cn1,6.63%,-0.6308%,9.36%
COc1ncccc1CN1CCc2[nH]cnc2C1CCSC (centres undefined),-15.35%,-15.35%,10.56%
O=C(O)C(F)(F)F.[H][C@@]12CCCO[C@]1([H])[C@@H](OCC1CCOCC1)CN2Cc1ccccc1F,-23.04%,-2.61%,-
COc1cc(C(C#N)NC(=O)CC2=CCCCC2)cc(OC)c1OC (centres undefined),10.04%,-,21.31%
CCN1CCCC(O)(CNCc2ccncc2)C1 (centres undefined),-33.86%,-,6.015%
O=C(O)C(F)(F)F.O=C(O)C(F)(F)F.O=c1ccc2c(n1CCN1CCCC1)CCN(Cc1ccoc1)CC2,-20.81%,-4.786%,-
CCCN(CC(=O)N1CCNCC1)C(=O)c1cccc(Cl)c1.O=C(O)C(F)(F)F,0.5334%,19.22%,-
[H][C@@]12CN(C(=O)C3CCOC3)C[C@@]1([H])N(CC(C)C)C(=O)CO2 (some centres undefined),-32.65%,-62.26%,-
N#Cc1ccc(OC2CCN(CC(=O)NCC3CCCO3)CC2)cc1 (centres undefined),22.36%,-,8.807%
Cc1nc2ccnn2c(C)c1CCC(=O)N1CCN2CCCCC2C1 (centres undefined),-1.007%,-1.576%,20.57%
Cc1occc1C(=O)N1CC[C@@H](N2CCOCC2)[C@@H]1Cc1ccccc1,5.805%,14.95%,14.16%
O=C(c1ccc(O)c(Cl)c1)N1CCC(c2n[nH]c(C3CC3)n2)CC1,-11.3%,-,6.25%
CCN1Cc2nccn2CC(COCc2csc(C)n2)C1 (centres undefined),-,-,13.11%
CCC(CC)C(=O)N1CCN(C)c2ncccc2C1,-3.894%,24.34%,11.29%
CCOC(C)C(=O)Nc1ccc(Sc2nncn2C)c(Cl)c1 (centres undefined),-0.2791%,8.575%,2.29%
O=C(NCCc1csc(-c2ccncc2)n1)C1CC(=O)N(C2CC2)C1 (centres undefined),-18.06%,22.94%,15.53%
CN(C)[C@H]1CCCCN(Cc2cnc(NCc3ccccc3)nc2)C1,-25.52%,0.4205%,20.83%
[H][C@@]12C[C@H](c3nnc(C4CC4)o3)O[C@@]1([H])CCN(CC1CCOCC1)C2,17.87%,32.97%,-
O=C(c1ccc(NCc2cccc(F)c2)cc1)N1CCCC1,12.99%,14.53%,6.46%
Cc1cccc(C(=O)NC(C(=O)NCc2ccc(O)nc2)C(C)C)c1 (centres undefined),12.05%,10.25%,18.32%
O=C(C1CC1)N1CC[C@H](O)[C@@H]1Cc1ccccc1,-10.17%,8.475%,10.44%
O=C(NCC(F)(F)F)C1=NOC2(CCCNC2)C1 (centres undefined),-,-,8.155%
Cc1ccc(S(=O)(=O)N(CC(N)=O)CC(C)C)cc1C,-4.149%,-,13.17%
CC(C)COC(C)C(=O)NCCNS(C)(=O)=O (centres undefined),-20.75%,9.793%,17.2%
COc1ccccc1NC(=O)CC(C)NCc1scnc1C (centres undefined),-0.6997%,-11.77%,4.348%
Cc1nc(C(C)C)sc1C(=O)N1CCC(C(N)=O)CC1,-0.5792%,-4.164%,10.28%
CCC(=O)N1CCCCC1c1nc(N(C)C)ncc1-c1cc(C)no1 (centres undefined),7.144%,21.46%,11.21%
Cn1cc2ncn(CCNc3cccnc3)c(=O)c2n1,-5.99%,-4.286%,22.45%
Cc1cc(=O)[nH]c(-c2cccc(CN3CCCN4CCCC4C3)c2)n1 (centres undefined),24.37%,37.22%,18.06%
COC(C(=O)NCc1c(C)nc2cc(=O)[nH]n2c1C)c1ccccc1 (centres undefined),5.148%,22.65%,10.53%
CN1CCN(CCNC(=O)c2sccc2C2CC2)CC1,-5.956%,-22.29%,-1.412%
[H][C@]12CCN(C(=O)c3ccoc3)[C@@]1([H])CC[C@H](COCC1CCOCC1)O2,-30.01%,-34.47%,-
CN(C)c1cccc(C(=O)Nc2cn(C)c(=O)n(C)c2=O)c1,13.71%,-60.65%,20.92%
CCOC(=O)N1CCCC2(CCCNC2)C1 (centres undefined),-,-,7.222%
c1cnc(NCc2cncc3c2CCN(Cc2cccnc2)C3)nc1,-,-,8.571%
Cc1nn(C)cc1-c1cc(C(F)(F)F)n(CCCN)n1,-4.739%,-15.46%,10%
CCOC(=O)CCCc1ccc2c(c1)CC(=O)N2,-0.2582%,-,9.589%
O=C(c1cccnc1-c1ccoc1)N1C[C@H]2CC[C@@H]1C2,-,-,7.581%
[H][C@@]12CC[C@@](O)(c3ccc(C)cn3)[C@]1([H])CN(Cc1ccc(SC)cc1)C2,28.36%,11.21%,-
O=S(=O)(Nc1ccc(Oc2ccc3c(c2)OCO3)cc1)N1CCCCC1,-13.93%,-6.373%,-7.527%
[H][C@@]12CCN(C(=O)c3ccc(S(=O)(=O)NCC(F)F)cc3)[C@]1([H])CNC2,9.304%,10.72%,-
O=C1CC(c2ccc(C(=O)O)cc2)c2ncn(-c3cccc(F)c3)c2N1 (centres undefined),25.83%,-,12.86%
Cc1cc(NC(=O)CNC2CCc3nc(C(C)C)nn3C2)no1 (centres undefined),-8.395%,-,13.97%
Cc1ccc(CN2CCn3c(CNC(=O)c4cccn4C)cnc3C2)s1.O=C(O)C(F)(F)F,7.209%,28.77%,-
CC(=O)N1CCCC1(C(=O)N1CCCC1)c1cnccn1 (centres undefined),1.856%,38.5%,11.63%
CNC(=O)C1Cn2ccnc2C2(CCN(Cc3cccs3)CC2)O1.O=C(O)C(F)(F)F.O=C(O)C(F)(F)F (centres undefined),-16.91%,-12.64%,-
Cc1ccsc1CN(CCN(C)C)C(=O)C1=NNC(=O)CC1,8.839%,-0.6145%,10.56%
Cc1noc([C@@H]2C[C@H]3CN(CC4CCOCC4)C[C@H]3O2)n1,-,-,-3.425%
CC(c1ccccc1)N(C)CC(=O)NCCC#N (centres undefined),-10.17%,-10.6%,3.846%
CCNc1ncc2c(n1)CN(c1ccc(C)c(C)c1)C2=O,3.302%,-,14.32%
COCCN(Cc1ccc(F)cc1Cl)C(=O)c1cc(C)n[nH]1,-16.82%,31.01%,13.04%
O=C1CC(c2ccccc2)C2(CCN(Cc3nccs3)CC2)N1 (centres undefined),-,-,13.78%
CN(C)Cc1cccc(-c2cccnc2C(=O)NCc2ccco2)c1,14.91%,0.1793%,10.47%
CC(C)(CO)NCc1nn(Cc2ccccc2)nc1-c1ccccc1,-26.16%,-,-3.769%
COCCN(Cc1ccsc1)C(=O)c1c(C)cc(C)[nH]c1=O,14.83%,-31.46%,11.02%
CCOc1c(OC)cc(/C=C/c2ncc(C(=O)NC)s2)cc1OC,-13.23%,7.868%,7.692%

Repeated from the top, 5 entries:

{"compound": "C[C@@H]1CN(C(=O)c2c[nH]c(=O)c(Cl)c2)CC[C@@]1(O)C1CCOCC1", "Mtb heat-shock": 2.322, "Mtb growth Cornell": -15.26, "LdMetRS": 16.72}
{"compound": "CN(C)C(=O)C1(CCCc2ccncc2)CCCN1", "stereo": "centres undefined", "Mtb heat-shock": -2.085, "Mtb growth Cornell": -17.71, "LdMetRS": 9.247}
{"compound": "COc1ccc(NC(=O)N2CCN(c3ncccn3)CC2)cn1", "Mtb heat-shock": 6.63, "Mtb growth Cornell": -0.6308, "LdMetRS": 9.36}
{"compound": "COc1ncccc1CN1CCc2[nH]cnc2C1CCSC", "stereo": "centres undefined", "Mtb heat-shock": -15.35, "Mtb growth Cornell": -15.35, "LdMetRS": 10.56}
{"compound": "O=C(O)C(F)(F)F.[H][C@@]12CCCO[C@]1([H])[C@@H](OCC1CCOCC1)CN2Cc1ccccc1F", "Mtb heat-shock": -23.04, "Mtb growth Cornell": -2.61}